Reference: article PMC5677176
No constants are given. Whether binding was seen depends on the method and setting. In cells and extracts the contact can be indirect. Tags and fused reporters may be left off the sequences shown.

Target: T1, Xenopus Dvl2 (Xdsh), full-length, myc-tagged (Xenopus) (UniProt P51142)
T1 sequence: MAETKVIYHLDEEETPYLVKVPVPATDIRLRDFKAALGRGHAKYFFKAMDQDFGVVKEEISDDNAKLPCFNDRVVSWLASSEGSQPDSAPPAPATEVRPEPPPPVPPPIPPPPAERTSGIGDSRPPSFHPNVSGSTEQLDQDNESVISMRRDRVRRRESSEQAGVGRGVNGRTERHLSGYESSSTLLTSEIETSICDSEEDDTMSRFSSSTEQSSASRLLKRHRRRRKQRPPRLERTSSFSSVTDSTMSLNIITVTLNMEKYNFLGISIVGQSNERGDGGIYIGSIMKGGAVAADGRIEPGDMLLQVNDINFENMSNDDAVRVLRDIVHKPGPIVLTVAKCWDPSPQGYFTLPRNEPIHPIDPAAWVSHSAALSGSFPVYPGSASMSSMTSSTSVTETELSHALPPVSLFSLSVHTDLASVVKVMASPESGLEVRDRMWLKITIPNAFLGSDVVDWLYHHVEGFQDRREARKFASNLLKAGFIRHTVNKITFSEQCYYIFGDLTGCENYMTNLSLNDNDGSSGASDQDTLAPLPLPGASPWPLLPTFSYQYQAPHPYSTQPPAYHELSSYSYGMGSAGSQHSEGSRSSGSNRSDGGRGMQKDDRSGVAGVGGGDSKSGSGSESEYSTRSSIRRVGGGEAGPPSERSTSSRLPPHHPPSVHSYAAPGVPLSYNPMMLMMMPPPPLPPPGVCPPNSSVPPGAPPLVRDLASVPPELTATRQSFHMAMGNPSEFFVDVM
Test: co-IP; HEK293T cells transfected for 24 h; lysis in 150 mM NaCl, 50 mM Tris-HCl pH 7.5, 1% Triton X-100; precipitation with anti-myc agarose beads, 2 h at 4 °C; five washes with 500 mM NaCl; blots with anti-myc or anti-Flag

binding: no binding
Substance: Flag-Lurap1ΔC (zebrafish Lurap1 lacking the C-terminal PDZ-binding motif) (domain or fragment)
